# Results from article PMC4532887, “Structural and mechanistic insights into phospholipid transfer by Ups1–Mdm35 in mitochondria” (Nature Communications, 2015).
# Results are given in words; binding and its absence hold for the method and conditions named. Tags and fused reporters may be left off the sequences shown.
# B1: Ups1ΔC5 (Ups1 lacking the C-terminal five residues), N-terminally His6 tagged (domain or fragment, UniProt Q05776 1-170)
# chain: MVLLHKSTHIFPTDFASVSRAFFNRYPNPYSPHVLSIDTISRNVDQEGNLRTTRLLKKSGKLPTWVKPFLRGITETWIIEVSVVNPANSTMKTYTRNLDHTGIMKVEEYTTYQFDSATSSTIADSRVKFSSGFNMGIKSKVEDWSRTKFDENVKKSRMGMAFVIQKLEEA
# Key:
# [1] = molecular target: Ups1ΔC5 (Ups1 lacking the C-terminal five residues), N-terminally His6 tagged (S. cerevisiae) (UniProt Q05776); experiment: SEC; gel-filtration analysis of the Ups1ΔC5–Mdm35ΔC5 complex in solution; apparent MW; both purified
# [2] = molecular target: Ups1ΔC5 (Ups1 lacking the C-terminal five residues), N-terminally His6 tagged (S. cerevisiae) (UniProt Q05776); experiment: crystal structure; Ups1ΔC5–Mdm35ΔC5 complex without PA, 1.40 Å; sitting drop at 20 °C, 0.2 M ammonium citrate tribasic pH 7.0, 20% polyethylene glycol 3,350; both purified
binder,measurement,setting,value
B1,binding,[1],no binding
same,binding,[2],no binding
